Measurements reported in paper PMC3393737 (PLoS ONE, 2012).

Molecular target: T1, ABCB6 (ABCB6-flag) (Homo sapiens, UniProt Q9NP58)
T1 sequence (Q9NP58 1-842): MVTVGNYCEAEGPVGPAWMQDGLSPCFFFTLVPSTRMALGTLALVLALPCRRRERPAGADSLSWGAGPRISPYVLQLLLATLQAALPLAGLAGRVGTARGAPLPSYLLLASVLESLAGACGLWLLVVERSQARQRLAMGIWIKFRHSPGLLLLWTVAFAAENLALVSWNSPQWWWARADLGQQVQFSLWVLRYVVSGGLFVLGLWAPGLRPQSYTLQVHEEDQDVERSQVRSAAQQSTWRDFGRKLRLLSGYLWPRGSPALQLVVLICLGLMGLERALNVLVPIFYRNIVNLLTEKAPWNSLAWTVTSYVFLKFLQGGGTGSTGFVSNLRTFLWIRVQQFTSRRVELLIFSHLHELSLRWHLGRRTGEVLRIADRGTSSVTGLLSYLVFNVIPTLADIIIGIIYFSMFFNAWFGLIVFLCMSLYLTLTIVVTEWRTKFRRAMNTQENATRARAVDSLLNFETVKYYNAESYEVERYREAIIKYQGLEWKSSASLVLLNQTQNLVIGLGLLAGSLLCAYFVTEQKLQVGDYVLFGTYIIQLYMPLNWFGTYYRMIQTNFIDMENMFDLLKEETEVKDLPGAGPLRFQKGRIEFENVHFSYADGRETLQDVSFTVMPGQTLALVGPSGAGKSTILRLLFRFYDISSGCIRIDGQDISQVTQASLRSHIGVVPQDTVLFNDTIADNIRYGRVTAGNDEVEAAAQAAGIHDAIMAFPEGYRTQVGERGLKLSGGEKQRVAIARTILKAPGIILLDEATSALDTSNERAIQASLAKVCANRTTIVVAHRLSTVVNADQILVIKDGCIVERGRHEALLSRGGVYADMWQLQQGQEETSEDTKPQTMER
Settings: ATP present; does not displace ABCB6 from hemin-agarose at 20 µM, different site suggested

Compound: CC(C)(C)CC(C)(C)c1ccc(OCCOCC[N+](C)(C)Cc2ccccc2)cc1 [BCL, benzethonium chloride]
- inhibition of radiolabelled hemin uptake into mitochondria of ABCB6-expressing c: benzethonium chloride acts as a weak inhibitor of ABCB6 mediated transport of hemin
